Reference: article PMC4747989 (Cancer Nanotechnology, 2016)

Experiment: peptide made by a vendor
Details: whole synthesis

Substance: FITC-tagged Pep-A
- final HPLC purity: ~95%
